# Measurements as given in patent US20250128203A1, “MODIFIED REDOX-ACTIVE SORBENTS FOR ELECTROCHEMICAL CARBON DIOXIDE SEPARATION” (The Johns Hopkins University, priority 2023, published 2025).
# Test: Flow-based EMCC prototype, cyclic CO2 capture/release
# Description: In a typical experiment, the sorbent tank (20 mL scintillation vial with septum cap) was continuously bubbled with CO2 feed gas (balanced by N2) with the flow rate controlled by a mass flow controller (Alicat). For testing under simulated flue gas conditions, a gas mixture of 10% CO2+3% O2 balanced by N2 was used. An infrared-based CO2 sensor (SprintIR-W 100%) was connected at the gas exit to monitor the CO2 concentration continuously. The tank headspace was filled with plastic beads (McMaster-Carr) to limit the mixing time in the headspace. The Fc tank was kept air free. A two-channel peristaltic pump (Masterflex) circulated the sorbent and the Fc electrolyte to a commercial flow cell (Scribner) at a flow rate of 10 mL min^−1. The flow cell utilised graphite plates with 5 cm^2 interdigitated flow fields pressed against two pieces of carbon paper electrodes (Sigracet 28 AA) at each side of the graphite electrodes to distribute the liquid flow. A Nafion™ 115 membrane was sandwiched by two pieces of polypropylene and placed between the carbon paper electrodes. The cell was kept sealed by Kalrez fluoropolymer elastomer gaskets (0.02 inches thick). CO2 capture was conducted in a constant current mode while the release was carried out following a constant current/constant voltage protocol (that is, oxidizing the adduct at a constant current until a specific cut-off voltage followed by a constant voltage hold (the cut-off current for the constant voltage hold was 5% of the value used in the constant current oxidation). The cycling protocols of each experiment are provided in the corresponding figure captions.
# For experiments using 6MCIId sorbent, we added 10 mM 6MCIId and 4 mM ferrocenium tetrafluoroboronate (FcBF4) into the CE tank to mitigate sorbent crossover and facilitate the reduction of the oxidised ferrocenium in the counter electrolyte, respectively. For less soluble 55DBIId and 66DBIId, the sorbent was dispersed in DMAc to form a slurry catholyte.
# [1] = 75 mM sorbent slurry in DMAc, 0.25 M NaClO4
# [2] = 12 mL 75 mM sorbent slurry in DMAc, 0.25 M NaClO4, 10 mA
# [3] = 10% CO2 feed, 2 sccm, 0.1 M sorbent in DMF, 0.25 M NaClO4, 10 mA
# [4] = 10% CO2 feed, 0.1 M sorbent in DMF, 0.25 M NaClO4
# [5] = 100% CO2 headspace, 0.25 M sorbent in DMF, 0.5 M NaTFSI
structure (smiles),measurement,setting,value
"O=C1Nc2ccc(Br)cc2/C1=C1\C(=O)Nc2ccc(Br)cc21 [55DBIId, 5,5′-Dibromoisoindigo]",Average CO2 utilisation efficiency,[1],approximately 80%
same,Average release/capture efficiency,[1],approximately 80%
same,"Energy consumption, 2nd capture/release cycle",[2],135.2 kJ per mol CO2 concentrated
"COC(=O)C(CO)NC(=O)c1ccc2c(c1)NC(=O)/C2=C1/C(=O)Nc2cc(Br)ccc21 (stereo not shown) [6B6AIIdSer, Methyl 6-bromoisoindigo-6′-carbonylserinate]",Initial energy capacity,"0.2 M, 5 mL",53.6 mAh
same,"Early-stage energy consumption, 2nd capture/release cycle","5 mL 0.2 M sorbent in DMF, 0.5 M NaTFSI, 10 mA",158.6 kJ per mol CO2 concentrated
same,Energy capacity of the flow cell in the last cycle tested,"−1.3 V cut-off potential, 0.2 M, 5 mL",7 mAh
"O=C1Nc2cc(Br)ccc2/C1=C1\C(=O)Nc2cc(Br)ccc21 [66DBIId, 6,6′-Dibromoisoindigo]","Energy consumption, 2nd capture/release cycle",[2],166.9 kJ per mol CO2 concentrated
"COC(=O)c1ccc2c(c1)NC(=O)/C2=C1/C(=O)Nc2ccccc21 [6MCIId, Methyl isoindigo-6-carboxylate]",Single pass CO2 removal,1% CO2 with 0.3% O2 feed,greater than 90%
same,"Early-stage energy consumption, CO2 captured","1% CO2 with 0.3% O2 feed, 0.25 M sorbent in DMF, 0.5 M NaTFSI, 25 cm^2 electrode",224.2 kJ mol^−1 CO2
same,"Electrical energy consumption, first cycle",[3],127.3 kJ mol^−1 CO2
same,"Electrical energy consumption, over the first 16 cycles",[3],142.5±8.2 kJ mol^−1 CO2
same,"CO2 capacity utilisation, average over 19 cycles",[4],65%
same,Electrochemical (Coulombic) efficiency,[4],approximately 84%
same,"Release/capture efficiency, average",[4],97%
same,"Early-stage energy consumption, CO2 captured",[5],143.7 kJ mol^−1 CO2
same,"Early-stage energy consumption, CO2 released",[5],13.6 kJ mol^−1 CO2
same,"Early-stage energy consumption, 2nd capture/release cycle","higher percentage of CO2 removal: 10% CO2, 1 sccm, 0.2 M sorbent in DMF, 0.5 M NaTFSI, 12 mA",230.7 kJ per mol CO2 concentrated
same,CO2 capacity utilisation efficiency,"simulated flue gas (10% CO2+3% O2 balanced in N2), approximately 90 hours",approximately 50%
same,"Energy consumption, 2nd capture/release cycle","simulated flue gas: 10% CO2 and 3% O2 in N2, 2 sccm, 0.1 M sorbent in DMF, 0.5 M NaTFSI",170.7 kJ per mole of CO2 concentrated
